Patent publication US11845084B2, “Microchip high density hanging drop three-dimension culture platform” (The Board of Trustees of the University of Illinois, priority 2020, dated 2023)
At least one compound was matched to its structure with a doubt left.

Assays:
GBM8 PDX [1] = conditions: GBM8 PDX in vivo; cited from earlier work
[2] = system: PDX microcancers (GBM8 patient-derived xenograft glioblastoma cells); experiment: On-chip drug testing of PDX microcancer spheroids in microchip hanging drop 3D culture; assay type: cell-based, human; conditions: higher drug concentrations
[3] = system: conventional and PDX GBM cell lines, including LN229; conditions: previously shown; cited from earlier work
GBM8 PDX [4] = conditions: cited from earlier work
[5] = system: LN229 microcancer spheroids; experiment: On-chip drug testing of LN229 microcancer spheroids in microchip hanging drop 3D culture; assay type: cell-based, human; conditions: higher concentrations of drug (10 uM, 1 uM and 100 nM) compared to lower concentrations and no drug control
Description: In contrast, conventional hanging drop methods used to extract the formed tumor spheroids and then performing an end-point only analysis in a separate well plate. Dasatinib was selected for drug testing, and introduced after 3 days of culture in the chip. […] One process for introducing the drugs on chip is as follows. The chip was kept upright inside mineral oil and centrifuged briefly to bring down the spheroids. Next, appropriate volume of media with drugs is loaded on chip through oil and incubated for 30 minutes to reach a homogeneous concentration. […] The chip was partitioned as before by using oil, inverted, and daily measurements of green and red fluorescence were taken. […]
The total number of cells were extracted from the off-chip culture into a 1.7 mL tube and then centrifuged at 200 g for 5 min so that all cells settle to the bottom of the tube. […] To stop the PKH 26 Red Fluorescence staining, media with FBS was added to the cell and dye solution. […]
Spheroid Imaging: Real time imaging was done daily after seeding with an upright Olympus BX63 fluorescence microscope with a 10× objective (0.3 NA). […] Tiles and Z-stacks of 10 um slice thickness of the area with spheroids or shapes were taken of chips in bright-field, GFP and RFP fluorescence wavelengths. The CellTox green fluorescence dye was captured using the GFP fluorescence and the PKH Red dye was captured using the RFP. […]

Structure (SMILES): Cc1nc(Nc2ncc(C(=O)Nc3c(C)cccc3Cl)s2)cc(N2CCN(CCO)CC2)n1 [Dasatinib]
- effect on tumor growth (GBM8 PDX [1]): inability of Dasatinib to affect tumor growth
- integrity of microcancers [2]: remained intact even for higher drug concentrations
- cell viability [3]: reduce cell viability
- efficacy in 2D culture (GBM8 PDX [4]): highly effective in 2D culture
- cell death (green volume normalized to red volume) [5]: the cell death starts to increase as soon as 4 days after culture with drugs
